Data as given in US20260053716A1 (HYSENSBIO CO., LTD, priority 2022, published 2026).
Ends that are not written are not given here.

Assay: general procedure: Fmoc solid-phase peptide synthesis
Conditions: whole synthesis, high-performance liquid chromatography

For KYKQKRRSYK, the “purity (crude or final not stated)” value was 97% or higher.
